Reference: publication doi:10.1101/794511
These are yes or no findings as the source states them, for the method shown. For some assays here: In cells and extracts the contact can be indirect. Some results given as binding are weak or reduced against the parent protein; the word gives no strength.

By UniProt entry, the sequences of proteins in these tests, tags left out.
UniProt P31316: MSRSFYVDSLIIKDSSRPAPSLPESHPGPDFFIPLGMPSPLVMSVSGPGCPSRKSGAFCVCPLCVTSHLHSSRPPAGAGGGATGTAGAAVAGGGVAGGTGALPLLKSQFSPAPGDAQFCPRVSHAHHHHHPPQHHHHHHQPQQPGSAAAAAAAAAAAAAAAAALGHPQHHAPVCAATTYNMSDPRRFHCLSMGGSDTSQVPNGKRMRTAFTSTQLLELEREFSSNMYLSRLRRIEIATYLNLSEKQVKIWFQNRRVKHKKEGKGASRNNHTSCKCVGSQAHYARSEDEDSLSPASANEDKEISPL
UniProt P31315: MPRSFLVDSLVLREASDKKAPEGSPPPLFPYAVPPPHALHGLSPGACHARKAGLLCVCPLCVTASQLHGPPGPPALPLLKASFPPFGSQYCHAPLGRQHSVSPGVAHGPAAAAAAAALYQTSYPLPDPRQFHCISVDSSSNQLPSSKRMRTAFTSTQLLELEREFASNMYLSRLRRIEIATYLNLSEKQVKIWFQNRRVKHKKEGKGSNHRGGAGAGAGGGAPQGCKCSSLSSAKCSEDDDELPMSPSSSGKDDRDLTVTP

B1: Ascl1, yeast two-hybrid prey in pGADT7 (protein, UniProt Q02067 1-231)
chain: MESSGKMESGAGQQPQPPQPFLPPAACFFATAAAAAAAAAAAAQSAQQQQPQAPPQQAPQLSPVADSQPSGGGHKSAAKQVKRQRSSSPELMRCKRRLNFSGFGYSLPQQQPAAVARRNERERNRVKLVNLGFATLREHVPNGAANKKMSKVETLRSAVEYIRALQQLLDEHDAVSAAFQAGVLSPTISPNYSNDLNSMAGSPVSSYSSDEGSYDPLSPEEQELLDFTNWF
B2: Ascl1, endogenous in the E12.5 mouse telencephalon (protein, UniProt Q02067 1-231)
chain: B1 chain
B3: Ascl1 bHLH domain (Ascl1^97-193), yeast two-hybrid prey (domain or fragment, UniProt Q02067 97-193)
chain: RLNFSGFGYSLPQQQPAAVARRNERERNRVKLVNLGFATLREHVPNGAANKKMSKVETLRSAVEYIRALQQLLDEHDAVSAAFQAGVLSPTISPNYS
B4: Ascl1 N-terminus (Ascl1^1-131), yeast two-hybrid prey (domain or fragment, UniProt Q02067 1-131)
chain: MESSGKMESGAGQQPQPPQPFLPPAACFFATAAAAAAAAAAAAQSAQQQQPQAPPQQAPQLSPVADSQPSGGGHKSAAKQVKRQRSSSPELMRCKRRLNFSGFGYSLPQQQPAAVARRNERERNRVKLVNL

Assays:
[1] = target: Gsx2, yeast three-hybrid bait (pBRIDGE MCS1) (mouse) (UniProt P31316); assay: yeast three-hybrid
[2] = target: Gsx1, yeast two-hybrid bait in pGBKT7 (UniProt P31315); assay: two-hybrid
[3] = target: Gsx2 (full-length), yeast two-hybrid bait in pGBKT7 (mouse) (UniProt P31316); assay: two-hybrid
[4] = target: Gsx2, endogenous in the E12.5 mouse telencephalon (mouse (endogenous in E12.5 telencephalon)) (UniProt P31316); assay: proximity ligation
[5] = target: Gsx2, endogenous in the E12.5 mouse telencephalon (mouse (endogenous in E12.5 telencephalon)) (UniProt P31316); assay: co-IP

| Binder | binding [3] | further results |
| --- | --- | --- |
| B1 | binds | binding [1]: binds; binding [2]: no binding |
| B2 | – | binding [4]: binds; binding [5]: binds |
| B3 | binds | – |
| B4 | no binding | – |
| SNDLNSMAGSPVSSYSSDEGSYDPLSPEEQELLDFTNWF (domain or fragment, UniProt Q02067 193-231) [Ascl1 C terminus (Ascl1^193-231), yeast two-hybrid prey] | no binding | – |
